## Drug screen on melanoma cell lines: apoptosis marker

From a melanoma drug combination screen (doi:10.1371/journal.pone.0140310); values rounded.

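Human melanoma cell lines in 1,536-well plates were treated with a pair of drugs for 72 h, then fixed, stained and imaged. Each value is the cleaved-PARP-positive fraction of nuclei relative to DMSO-treated wells, in %, so that 100 equals the control and higher values mean more apoptosis. Every drug was used at one fixed concentration, the higher of two screened. The file gives one value for each pair and line, without errors, so small differences may be noise. The marker varies much from line to line, for technical or biological reasons.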
Only some of the drugs and lines screened are listed, without regard to their results.
A dash means that no value is listed here.

First drug in all entries: midostaurin, 0.4 µM, CO[C@@H]1[C@H](N(C)C(=O)c2ccccc2)C[C@H]2O[C@]1(C)n1c3ccccc3c3c4c(c5c6ccccc6n2c5c31)C(=O)NC4

Drug key:
YM155, 0.002 µM: COCC[n+]1c2c(n(Cc3cnccn3)c1C)C(=O)c1ccccc1C2=O
docetaxel, 0.0005 µM: CC(=O)O[C@@]12CO[C@@H]1C[C@H](O)[C@@]1(C)C(=O)[C@H](O)C3=C(C)[C@@H](OC(=O)[C@H](O)[C@@H](NC(=O)OC(C)(C)C)c4ccccc4)C[C@@](O)([C@@H](OC(=O)c4ccccc4)[C@H]21)C3(C)C
bexarotene, 10 µM: C=C(c1ccc(C(=O)O)cc1)c1cc2c(cc1C)C(C)(C)CCC2(C)C
fingolimod, 10 µM: CCCCCCCCc1ccc(CCC(N)(CO)CO)cc1
BMS-536924, 1 µM: Cc1cc(N2CCOCC2)cc2[nH]c(-c3c(NC[C@@H](O)c4cccc(Cl)c4)cc[nH]c3=O)nc12
NVP-BEZ235, 0.02 µM: Cn1c(=O)n(-c2ccc(C(C)(C)C#N)cc2)c2c3cc(-c4cnc5ccccc5c4)ccc3ncc21
PD173074, 0.5 µM: CCN(CC)CCCCNc1ncc2cc(-c3cc(OC)cc(OC)c3)c(NC(=O)NC(C)(C)C)nc2n1
vismodegib, 5 µM: CS(=O)(=O)c1ccc(C(=O)Nc2ccc(Cl)c(-c3ccccn3)c2)c(Cl)c1
SNS-314, 0.004 µM: O=C(Nc1cccc(Cl)c1)Nc1ncc(CCNc2ncnc3ccsc23)s1
ruxolitinib, 5 µM: N#CC[C@H](C1CCCC1)n1cc(-c2ncnc3[nH]ccc23)cn1
perifosine, 2 µM: CCCCCCCCCCCCCCCCCCOP(=O)([O-])OC1CC[N+](C)(C)CC1
A-769662, 10 µM: N#Cc1c(O)c2c(-c3ccc(-c4ccccc4O)cc3)csc2[nH]c1=O
tanespimycin, 0.01 µM: C=CCNC1=C2C[C@@H](C)C[C@H](OC)[C@H](O)[C@@H](C)/C=C(\C)[C@H](OC(N)=O)[C@@H](OC)/C=C\C=C(/C)C(=O)NC(=CC1=O)C2=O
MK-2206, 2 µM: NC1(c2ccc(-c3nc4ccn5c(=O)[nH]nc5c4cc3-c3ccccc3)cc2)CCC1
cisplatin, 8 µM: N.N.[Cl][Pt][Cl]
BI-78D3, 1 µM: O=c1[nH]nc(Sc2ncc([N+](=O)[O-])s2)n1-c1ccc2c(c1)OCCO2
dorsomorphin, 2 µM: c1cc(-c2cnn3cc(-c4ccc(OCCN5CCCCC5)cc4)cnc23)ccn1
AS-252424, 5 µM: O=C1NC(=O)/C(=C/c2ccc(-c3ccc(F)cc3O)o2)S1
STA-4783, 0.03 µM: CN(NC(=O)CC(=O)NN(C)C(=S)c1ccccc1)C(=S)c1ccccc1
KU-55933, 5 µM: O=c1cc(-c2cccc3c2Sc2ccccc2S3)oc(N2CCOCC2)c1
selumetinib, 0.075 µM: Cn1cnc2c(F)c(Nc3ccc(Br)cc3Cl)c(C(=O)NOCCO)cc21
VX-702, 2 µM: NC(=O)c1ccc(N(C(N)=O)c2c(F)cccc2F)nc1-c1ccc(F)cc1F
MK-1775, 0.1 µM: C=CCn1c(=O)c2cnc(Nc3ccc(N4CCN(C)CC4)cc3)nc2n1-c1cccc(C(C)(C)O)n1
temozolomide, 10 µM: Cn1nnc2c(C(N)=O)ncn2c1=O
dovitinib, 0.5 µM: CN1CCN(c2ccc3nc(-c4c(N)c5c(F)cccc5[nH]c4=O)[nH]c3c2)CC1
vorinostat, 0.4 µM: O=C(CCCCCCC(=O)Nc1ccccc1)NO
lestaurtinib, 0.02 µM: C[C@]12O[C@H](C[C@]1(O)CO)n1c3ccccc3c3c4c(c5c6ccccc6n2c5c31)CNC4=O
lapatinib, 4 µM: CS(=O)(=O)CCNCc1ccc(-c2ccc3ncnc(Nc4ccc(OCc5cccc(F)c5)c(Cl)c4)c3c2)o1
veliparib, 7 µM: C[C@]1(c2nc3c(C(N)=O)cccc3[nH]2)CCCN1
gemcitabine, 0.002 µM: Nc1ccn([C@@H]2O[C@H](CO)[C@@H](O)C2(F)F)c(=O)n1
OSU-03012, 5 µM: NCC(=O)Nc1ccc(-n2nc(C(F)(F)F)cc2-c2ccc3c(ccc4ccccc43)c2)cc1
palbociclib, 0.2 µM: CC(=O)c1c(C)c2cnc(Nc3ccc(N4CCNCC4)cn3)nc2n(C2CCCC2)c1=O
vatalanib, 10 µM: Clc1ccc(Nc2nnc(Cc3ccncc3)c3ccccc23)cc1
dasatinib, 0.02 µM: Cc1nc(Nc2ncc(C(=O)Nc3c(C)cccc3Cl)s2)cc(N2CCN(CCO)CC2)n1
embelin, 6 µM: CCCCCCCCCCCC1=C(O)C(=O)C=C(O)C1=O
ABT-263, 2 µM: CC1(C)CCC(c2ccc(Cl)cc2)=C(CN2CCN(c3ccc(C(=O)NS(=O)(=O)c4ccc(N[C@H](CCN5CCOCC5)CSc5ccccc5)c(S(=O)(=O)C(F)(F)F)c4)cc3)CC2)C1

Second drug,UACC-257,IST-MEL1,MEL-HO,SK-MEL-28,A101D,RVH-421,COLO 800,MZ2-MEL,WM451Lu,C32,COLO 792,WM1745
palbociclib,178,80.8,82.7,292,76.8,55.5,124,100,68.3,107,235,214
SNS-314,275,95.1,126,299,158,192,541,524,291,137,368,382
vatalanib,119,64.8,170,444,183,242,517,867,165,132,196,412
NVP-BEZ235,99.0,474,121,65.0,148,148,154,176,122,109,124,204
A-769662,49.7,35.1,56.2,107,61.3,128,108,99.8,115,112,117,183
KU-55933,162,91.7,61.8,198,290,62.4,393,522,213,238,274,310
docetaxel,248,1430,154,395,84.8,176,169,589,1140,506,2150,330
YM155,987,293,105,1360,208,167,180,1810,638,96.3,833,196
temozolomide,160,459,78.3,266,263,77.6,556,578,156,125,292,240
tanespimycin,99.3,225,85.3,158,245,349,163,559,210,817,208,437
embelin,67.8,120,68.4,195,94.5,245,132,222,163,130,140,832
bexarotene,49.9,504,83.4,78.2,53.8,249,206,462,259,98.1,307,147
BI-78D3,86.2,172,60.1,305,86.2,149,220,261,153,604,289,189
cisplatin,931,33.7,91.6,404,335,44.1,82.1,411,202,247,260,319
OSU-03012,384,200,113,1500,315,27.1,332,440,145,82.6,406,197
STA-4783,80.1,452,50.9,183,325,65.1,539,-,107,2030,684,219
vismodegib,84.9,125,89.8,187,203,102,337,167,131,78.8,140,156
BMS-536924,84.2,80.8,130,127,131,210,41.8,391,436,228,426,1010
perifosine,124,103,185,279,126,297,253,1030,277,51.5,154,275
vorinostat,454,71.0,90.5,259,267,78.7,215,460,260,240,350,204
dasatinib,131,108,111,84.8,110,83.0,685,794,356,862,426,515
dorsomorphin,30.0,172,39.5,34.3,122,272,100,-,77.6,149,228,282
lapatinib,55.7,354,127,139,101,94.0,474,115,101,370,279,175
dovitinib,166,157,395,248,169,130,228,355,132,447,165,229
gemcitabine,94.5,215,115,539,108,114,332,877,213,198,234,234
fingolimod,372,874,2170,2120,2010,403,197,8240,5540,9430,8290,1270
ABT-263,1880,150,326,672,162,472,161,2320,1070,376,9790,4750
MK-1775,100,110,102,256,264,188,232,224,43.9,976,251,949
MK-2206,234,38.3,62.9,163,141,210,277,-,155,103,103,241
PD173074,117,1400,117,26.4,110,347,101,164,76.9,112,174,334
VX-702,42.1,138,88.2,250,415,90.1,185,162,30.2,410,204,141
selumetinib,91.2,162,48.9,108,86.1,87.4,589,717,141,180,224,239
ruxolitinib,526,373,92.0,113,464,113,510,352,146,271,301,237
AS-252424,84.8,78.3,158,330,61.9,98.4,43.7,844,105,103,371,406
lestaurtinib,135,181,41.2,229,247,200,215,119,174,185,135,204
veliparib,44.9,435,86.7,297,87.3,185,30.0,370,214,329,342,268

2 of the entries, repeated:

Second drug,UACC-257,IST-MEL1,MEL-HO,SK-MEL-28,A101D,RVH-421,COLO 800,MZ2-MEL,WM451Lu,C32,COLO 792,WM1745
dovitinib,166,157,395,248,169,130,228,355,132,447,165,229
dasatinib,131,108,111,84.8,110,83.0,685,794,356,862,426,515